No constants are given. Whether binding was seen depends on the method and setting. In cells and extracts the contact can be indirect. Some binding calls cover weakened binding; strength is not graded here.
Key:
[1] = molecular target: Myc-GCN5 (UniProt Q92830); experiment: co-IP; Flag-p62 and Myc-GCN5 with or without overexpression of HA-Sirt1; precipitated with anti-Myc; western blot
[2] = molecular target: Flag-p62 (full-length SQSTM1/p62, wild type) (UniProt Q13501); experiment: co-IP; HEK293T cells co-transfected with Flag-p62 or Flag-p62 △LB and Myc-GCN5; precipitated with anti-Flag; western blot

Substance: Flag-p62 (full-length SQSTM1/p62, wild type) (from UniProt Q13501 1-440)
- binding [1]: binds

Substance: Myc-GCN5 (from UniProt Q92830 1-837) (enzyme)
- binding [2]: binds

Source: article PMC8046979
